In paper PMC9377071 one finds binding data, which are given here for one molecule.

For the test, the target named is Flag-tagged TauP301S (HTau 0N4R, P301S mutant) (human). As to the kind of experiment: co-IP; HEK 293T cells transfected with vector or Flag-TauP301S for 48 h; lysed in NP-40 buffer; lysate incubated with FLAG beads for 4 h; beads washed six times; immunoblot.

No constants are given. Whether binding was seen depends on the method and setting. In cells and extracts the contact can be indirect.

B1: mixed lineage kinase domain-like protein (protein, UniProt Q8NB16 1-471)
chain: MENLKHIITLGQVIHKRCEEMKYCKKQCRRLGHRVLGLIKPLEMLQDQGKRSVPSEKLTTAMNRFKAALEEANGEIEKFSNRSNICRFLTASQDKILFKDVNRKLSDVWKELSLLLQVEQRMPVSPISQGASWAQEDQQDADEDRRAFQMLRRDNEKIEASLRRLEINMKEIKETLRQYLPPKCMQEIPQEQIKEIKKEQLSGSPWILLRENEVSTLYKGEYHRAPVAIKVFKKLQAGSIAIVRQTFNKEIKTMKKFESPNILRIFGICIDETVTPPQFSIVMEYCELGTLRELLDREKDLTLGKRMVLVLGAARGLYRLHHSEAPELHGKIRSSNFLVTQGYQVKLAGFELRKTQTSMSLGTTREKTDRVKSTAYLSPQELEDVFYQYDVKSEIYSFGIVLWEIATGDIPFQGCNSEKIRKLVAVKRQQEPLGEDCPSELREIIDECRAHDPSVRPSVDEILKKLSTFSK
Regarding B1, the binding entry is reported as “no binding”.
